Experimental findings from PubChem BioAssay AID445 (National Center for Advancing Translational Sciences (NCATS), 2006) are described below.

This is one part of the list. Further columns of the screen follow, without active or inactive calls. Most of these compounds were active or inconclusive in the main read-out, so they are no random draw. Potencies come from curve fits of mixed quality, noted in brackets.

The assay is described as follows: IkB Signaling. The note with it: ABC-DLBCL IkBa-CBG/CBR dual luciferase ratio (green luciferase fused to IkBa over red control in OCI-Ly3 lymphoma cells), 4 h. The source says: NIH Molecular Libraries Screening Centers Network [MLSCN]
NIH Chemical Genomics Center [NCGC]
Nuclear factor kappa-B (NF-kappa-B) plays an important role in normal B cell development and survival. Diffuse large B cell lymphoma (DLBCL) is the most commonly observed type of non-Hodgkin's lymphoma. Gene expression analysis has identified an activated B cell-like subtype of DLBCL (ABC-DLBCL) which expresses known NF-kappa-B target genes. […] However, targets upstream of IKK have been largely unexplored and so nodes upstream of IKK in the NF-kappa-B pathway remain untested due to the lack of chemical probes.
A cell-sensor assay for I-kappa-B-alpha stabilization was developed with NIH investigator Dr. R. Eric Davis in Dr. Louis M. Staudt's laboratory. The assay uses green (CBG68) and red (CBR) emitting beetle luciferases [Chroma-Glo(TM) developed by Promega Corp.] where the green luciferase is fused to I-kappa-B-alpha and the red luciferase is present in its native state. Both luciferase genes are stably present in the OCI-Ly3 human ABC DLBCL cell line, but their expression is under the control of tetracycline-inducible promoters. Following the addition of doxycycline to induce expression of the luciferases, the green luminescence in control cultures rises only slowly because the CBG fusion partner I-kappa-B-alpha is targeted by IKK activity for rapid degradation. In contrast, green luminescence rises rapidly in the presence of proteasome inhibitors or IKK inhibitors. The rise in red luminescence of CBR is not affected by proteasome or IKK inhibitors, and serves as normalization for cell number and nonspecific effects. Compounds were screened as a concentration-titration series that ranged from 57 uM to 0.7 nM.
NCGC Assay Protocol Summary:
Cells were seeded in 1536-well plates at 5000 cells/3ul in IMDM medium containing 0.5% FBS, w/o phenol red, L-glutamine, 25 mM HEPES, 3 mg/ml sodium bicarbonate. After centrifugation for 1 min. at 1000 rpm, 23 nl of compounds or DMSO were delivered to each well using a pin tool. Then 1ul 80ng/ml doxycycline was dispensed into white solid 1536-well plates and the plates were incubated at 37C/5% C02 in a cell incubator for 4 hrs. Then 4 ul Chroma-Glo luminescent substrate mix (Promega) was added to each well. The plate was incubated at R.T. for 10-15 min. The plates were measured on a ViewLux plate reader for green luminescence (540/20 nm filter) and red luminescence (618/8 nm filter). The green and red luminescent signals were corrected for red and green luminescence filter overlap using previously determined filter calibration constants (determined using the procedure outlined in the Promega Technical Manual). The %Activity was determined from the ratio of corrected green/red luminescent values. Green luminescent and ratio %Activity was determined by normalizing to the difference in signal between basal cells (0% Activity) and cells incubated with 10 uM of the proteasome inhibitor MG-132 (100% Activity). Red luminescent %Activity was normalized to the difference between red luminesence in basal cells (0%Activity) and zero luminescence (-100% Activity).
Concentration-response curves were fitted to the signals arising from the green luminescence (I-kappa-B-alpha-luciferase fusion; IkB-luc) and the red luminescence (unfused luciferase; luc) as well as the calculated ratio. The concentration-effect curves were then classified based on curve quality (r2), response magnitude and degree of measured activity. Compounds were then categorized based on their concentration-response curves for all three datasets (Ikb-luc, luc and ratio).
Keywords: IKK, I-kappa-B, IkB, IkBa, cytotoxicity, luminescence, MLSMR, MLSCN, NIH Roadmap, qHTS, NCGC

The mark [1] stands for this setting: measured here: control luc red channel unless noted.
The mark [2] stands for this setting: measured here: IkB-luc green channel.
[3] abbreviates: measured here: control luc red channel.

For the compound `COc1ccc(NC(=O)Cn2nnc(C(=O)NCc3ccco3)c2N)c(OC)c1`, the AC50 under setting [1] was 39.8 µM [rising, partial curve, poor fit].
The same measure, in the same setting: the value for `Cc1cccc(N(C)C(=O)c2cc3cc4ccc(C)cc4nc3o2)c1` was 15.8 µM [falling, single point]; that for `Cc1cc(Nc2cccc(Br)c2)n2c(nc3ccccc32)c1C#N` was 1.26 µM [rising, partial curve]; that for `CCOc1cc(C(Nc2cc(C)ccn2)c2ccc3cccnc3c2O)ccc1OC` (stereo not drawn) was 15.8 µM [rising, partial curve] [measured here: IkB-luc green channel].
On the same count and under the same terms, under `Cc1ccc(CNC(=O)c2cn(C3CCCC3)c(=O)c3c2c2ccccc2n3C)o1` stands 7.94 µM [falling, partial curve]; under `COc1ccc(N2CCN(S(=O)(=O)c3cc(Br)cc4c3N(C(=O)C3CC3)CC4)CC2)cc1`, 10 µM [falling, partial curve, poor fit].
On the same count and under the same terms, the value for `CC(C)(C)OC(=O)N1CCC(c2c(C(=O)N3CCN(c4ccccn4)CC3)cnn2-c2cccc(F)c2)CC1` was 39.8 µM [falling, single point]; that for `Cc1ccc(C(=O)NCC(c2ccco2)S(=O)(=O)c2ccccc2)cc1C` (stereo not drawn) was 31.6 µM [falling, partial curve]; that for `CCOC(=O)c1ccc(NS(=O)(=O)c2ccc3c(c2)CCN3C(=O)CC)cc1` was 20 µM [falling, partial curve].
Consider `O=C(CSc1nccn1Cc1ccccc1)Nc1nc2ccccc2s1`, for which, under setting [1], the AC50 was 31.6 µM [falling, single point].
Same read-out and setting: under `Cc1cc(C)c(Cn2c(=O)n(Cc3ccccc3)c(=O)c3c(C)c(C)sc32)c(C)c1` stands 39.8 µM [falling, single point].
With `Cc1ccc(S(=O)(=O)c2nnn(CC(=O)Nc3ccccc3C)c2N)cc1`, the concentration at half-maximal activity (AC50) under setting [1] is 39.8 µM [rising, single point].
The same measure, in the same setting: under `COc1ccc(-n2nc(C(=O)N3CCCCC3)c3c4ccccc4n(C)c3c2=O)cc1Cl` stands 1.26 µM [rising, full curve, poor fit]; under `O=C(CSc1nnc2c(Cl)cc(C(F)(F)F)cn12)Nc1ccc2c(c1)OCO2`, 25.1 µM [falling, single point]; under `COc1cccc(C(=O)Nc2ccc(N(C)C)cc2)c1OC`, 20 µM [falling, single point].
Same read-out and setting: under `CCOC(=O)c1c(NC(=O)c2ccc(S(=O)(=O)N(CC(C)C)CC(C)C)cc2)sc2c1CCN(CC)C2` stands 7.94 µM [falling, full curve, poor fit]; under `CCOC(=O)N1CCc2c(sc(NCc3cccs3)c2C(=O)Nc2cc(Cl)ccc2OC)C1`, 5.01 µM [falling, partial curve, poor fit]; under `COc1cccc(-c2ccc3ncnc(NCCc4c[nH]c5ccc(OC)cc45)c3c2)c1`, 3.98 µM [falling, single point] [measured here: IkB-luc green channel].
Same read-out and setting: the value for `COc1ccccc1N1CCN(C(=O)c2ccc3c(c2)N(Cc2cc(C)ccc2C)C(=O)c2ccccc2S3(=O)=O)CC1` was 1.26 µM [falling, full curve, poor fit].
In the case of `COc1ccccc1CN(Cc1nc2ccccc2c(=O)[nH]1)C(=O)Nc1ccccc1`, the AC50 reads like this: under setting [2], 15.8 µM [falling, partial curve]; under setting [3], 12.6 µM [falling, partial curve].
Consider `CC(=O)N(CN1C(=O)c2ccccc2C1=O)c1ccccc1`, for which the AC50 under setting [1] was 6.31 µM [falling, single point].
On the same count and under the same terms, under `CC(=O)c1cccc(NC(=O)[C@H](Cc2ccccc2)N2Cc3ccccc3C2=O)c1` stands 20 µM [falling, single point]; under `O=C(Nc1nc2c(s1)CCCC2)c1ccc(Br)o1`, 7.94 µM [falling, full curve].
Still for that read-out and setting: the value for `COc1ccccc1C(=O)NCCSc1c(C)[nH]c2ccccc12` was 12.6 µM [falling, partial curve]; that for `COc1cccc(NC(=O)CSc2nc(=O)n(Cc3ccccn3)c3c2CCC3)c1` was 15.8 µM [falling, partial curve].
Same read-out and setting: under `COc1ccc(CCNC(=O)c2ccc3c(c2)N=C(C)c2cc(C)ccc2S3)cc1OC` stands 25.1 µM [falling, single point].
Turning to `CCc1ccc(NC(=O)Cn2c(=O)c(CNc3ccccc3)cc3cc(OC)c(OC)cc32)cc1`, under setting [1], the AC50 is 3.98 µM [falling, full curve].
The same measure, in the same setting: the value for `COc1ccc(-c2nc3ccccc3o2)cc1NC(=O)C(C)(C)Oc1ccc(Br)cc1` was 10 µM [rising, partial curve]; that for `Cc1nn(-c2ccccc2)c(OC(=O)c2ccccc2Cl)c1S(=O)(=O)c1ccccc1` was 1.58 µM [falling, full curve].
Still for that read-out and setting: under `Cc1nnc(NC(=O)CCC(=O)NCc2ccco2)s1` stands 12.6 µM [falling, partial curve]; under `CCOc1ccc(NC(=O)CSC2=Nc3ccccc3C3=NC(CCC(=O)NCc4cccs4)C(=O)N23)cc1` (stereo not drawn), 1.26 µM [falling, partial curve, poor fit]; under `CCc1nn2c(=O)cc(COC(=O)c3ccccc3NC(=O)COc3ccc(F)cc3)nc2s1`, 3.98 µM [falling, partial curve].
On to `CCOC(=O)c1[nH]c(C)c(CCC(=O)Nc2cccc(C(F)(F)F)c2)c1C`, for which, under setting [1], the AC50 is 2 µM [falling, partial curve].
Regarding `O=C(Nc1ccccc1C(F)(F)F)c1cc(-c2ccc(O)cc2)on1`, the AC50 under setting [1] is 20 µM [falling, partial curve].
The same measure, in the same setting: under `COc1ccc(C)cc1NC(=O)CN1C(=O)COc2ccc(S(=O)(=O)N3CCOCC3)cc21` stands 1 µM [falling, single point].
The same measure, in the same setting: the value for `Cc1ccc(NC(=O)COc2ccc(-c3nn(C)c(=O)c4ccccc34)cc2)cc1` was 20 µM [falling, partial curve]; that for `CCOC(=O)c1cccc(NC(=O)c2cc3cc4cc(OC)ccc4nc3s2)c1` was 31.6 µM [falling, single point]; that for `Cn1c(=O)[nH]c(=O)c2c1nc(Br)n2CCCCSc1nc2ccccc2o1` was 10 µM [falling, partial curve].
The same measure, in the same setting: the value for `CN(C)c1ccc(CNC(=O)C2CCCN(S(=O)(=O)c3ccc4c(ccn4C)c3)C2)cc1` (stereo not drawn) was 0.00794 µM [falling, full curve, poor fit].
`Clc1ccc(N2CCN(Cc3c[nH]c4ncccc34)CC2)cc1`: the AC50 is 0.631 µM [rising, partial curve, poor fit] under setting [2] and 5.01 µM [rising, partial curve] under setting [3].
As to `CCCCn1c(NC(=O)c2ccccc2Cl)c(C#N)c2nc3ccccc3nc21`, the concentration at half-maximal activity (AC50) under setting [1] was 10 µM [falling, partial curve].
Regarding `Cc1csc(NC(=O)CSc2ncnc3c2cnn3-c2ccccc2Cl)n1`, the concentration at half-maximal activity (AC50) under setting [1] is 25.1 µM [falling, partial curve].
Consider `COc1cccc(N2CCN(C(=O)CCS(=O)(=O)c3ccc4c(c3)CC(=O)N4C)CC2)c1`, for which, under setting [1], the AC50 was 0.1 µM [rising, full curve].
Same read-out and setting: under `O=C(Cn1c(=O)oc2cc(S(=O)(=O)N3CCCC3)ccc21)NCc1ccc(Cl)cc1` stands 25.1 µM [falling, single point].
On the same count and under the same terms, the value for `Cc1ncc(CO)c2c1Oc1nc(-c3ccccc3)nc(SCC(=O)N3CCCCC3)c1C2` was 15.8 µM [falling, partial curve].
As to `CCN(CC)C(=O)Cn1c(=O)n(Cc2ccc(C(=O)NCc3ccc(C)cc3)cc2)c(=O)c2ccccc21`, the concentration at half-maximal activity (AC50) under setting [1] is 10 µM [falling, partial curve].
Consider `CS(=O)(=O)N1CCc2cc(C(=O)Nc3ccc(Cl)c(C(F)(F)F)c3)ccc21`, for which the half-maximal activity concentration (AC50) under setting [1] is 20 µM [falling, partial curve].
Same read-out and setting: under `COc1ccc(NC(=O)Cn2c(=O)n(-c3cccc(C)c3)c(=O)c3c2c2cc(C)ccc2n3C)cc1Cl` stands 12.6 µM [falling, partial curve]; under `O=C(C1CCC(CNS(=O)(=O)c2ccc(Br)s2)CC1)N1CCN(c2ccccc2Cl)CC1` (stereo not drawn), 12.6 µM [falling, partial curve, poor fit].
The same measure, in the same setting: the value for `CCOc1cc2sc(N3CCC(C(=O)Nc4ccccc4C(=O)OC)CC3)nc2cc1Br` was 0.501 µM [falling, full curve].
Same read-out and setting: the value for `COc1cc2c(cc1OC)C(COc1ccc3c(C)cc(=O)oc3c1)N(C(=O)C(C)C)CC2` (stereo not drawn) was 20 µM [falling, single point].
Consider `O=C(Nc1c(C(=O)Nc2ccc(F)cc2)oc2ccccc12)c1cc2ccccc2o1`, for which, under setting [1], the AC50 is 12.6 µM [falling, partial curve].
Same read-out and setting: under `CC(=O)Nc1ccc(C(=O)CCl)cc1` stands 12.6 µM [falling, partial curve].
On to `c1ccc(-c2noc(-c3ccc4c(c3)OCO4)n2)nc1`, for which the AC50 under setting [1] is 1.26 µM [falling, full curve].
The same measure, in the same setting: under `Cc1cccc(-n2ccnc2SCC(=O)Nc2ccc(F)cc2F)c1C` stands 20 µM [falling, single point]; under `Cc1cc(Oc2c(C(F)(F)F)oc3c(CN4CCC(C)CC4)c(O)ccc3c2=O)cc(C)c1Cl`, 0.794 µM [falling, full curve, poor fit].
The same measure, in the same setting: the value for `Cc1ccc(C)c(CNC(=O)c2ccc3c(c2)nc2n3CCCCC2)c1` was 15.8 µM [falling, partial curve].
For `Cc1ccc(C)c(CN2CCC(CNC(=O)Nc3ccc(Br)cc3F)CC2)c1`, the half-maximal activity concentration (AC50) under setting [1] is 25.1 µM [falling, partial curve].
On the same count and under the same terms, under `Cc1cc(C(=O)CSc2nnc(-c3ccco3)o2)c(C)n1Cc1ccco1` stands 12.6 µM [falling, partial curve].
For `O=C(O)CCC(=O)OC1CC2CCC1C2` (stereo not drawn), the AC50 is 1.26 µM [rising, partial curve] under setting [2] and 0.1 µM [rising, full curve, poor fit] under setting [3].
